Source: PubChem BioAssay AID652243 (Drosophila RNAi Screening Center, 2013)
The deposit covers about 24,000 reagents; below is an unselected part of those with a known target gene and a result. In the full data, 246 (1%) are marked active. 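Plates not normalised; calls are printed but the firefly/Renilla ratio behind them is not deposited; fold cut for lowering reported inconsistently.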 The raw values are shown without normalisation. Unmarked entries are inactive. The record does not give: the amount of reagent.

Aim: 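Knock-downs that decrease or increase androgen receptor reporter signal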 (primary screen)
Cells: Drosophila S2R+ cells
Knock-down reagent: long dsRNA against Drosophila genes
Time to read-out: 72 h (48 h, then 24 h hormone)
Conditions: synthetic androgen R1881 at 10 nM for 24 h
Measurement: 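Firefly light from an androgen-responsive reporter and Renilla control light per well, raw and unnormalised, for each of two replicates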
Reading the numbers: firefly reporter light: higher = more light from androgen-responsive reporter; Renilla control light: higher = more constitutive control signal (cell number, transfection)
Active means: 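Across duplicate plates, a knock-down whose log firefly/Renilla ratio shifted a set fold down or up from the GFP/LacZ control mean was a hit; the downward cut appears as both 1.5 and 3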
Meaning of the calls: active = hit: reporter lowered or raised; inactive = no hit

no.	Gene	amplicon	firefly reporter light, replicate 1	firefly reporter light, replicate 2	Renilla control light, replicate 1	Renilla control light, replicate 2
1	anchor	DRSC10861	57825	59356	4.45e5	4.62e5
2	Afti	DRSC16440	48056	36207	3.64e5	3.36e5
3	Afti	DRSC29272	5.69e5	3.84e5	1.14e6	1.19e6
4	CG31560	DRSC12136	1.27e5	1.61e5	3.34e6	3.31e6
5	sqh	DRSC18837	67791	73405	8.31e5	5.92e5
6	sqh	DRSC23800	1.81e5	2.44e5	6.40e5	5.39e5
7	Dhod	DRSC16647	69652	59956	5.46e5	4.23e5
8	CG32148	DRSC09338	2.34e5	3.30e5	8.92e5	8.34e5
9	CG32148	DRSC28787	4.44e5	3.71e5	9.02e5	9.75e5
10	CG33322	DRSC03204	88384	87219	6.58e5	7.05e5
11	Yod1	DRSC10433	1.06e6	9.80e5	1.88e6	2.60e6
12	Yod1	DRSC27122	3.65e5	2.42e5	7.28e5	4.48e5
13	Sec10	DRSC17053	66644	76996	4.38e5	4.59e5
14	Sec10	DRSC29106	4.03e5	5.01e5	1.17e6	1.10e6
15	CG17328	DRSC01927	4.30e5	3.84e5	3.88e6	3.64e6
16	CG17328	DRSC22448	6.49e5	8.60e5	1.45e6	2.32e6
17	CG17328	DRSC25397	3.98e5	6.44e5	8.03e5	8.10e5
18	flip	DRSC12326	1.17e5	96339	3.02e6	2.38e6
19	CG4278	DRSC02741	8.56e5	1.29e6	1.84e6	1.83e6

In a second layout: 5 of the entries above.
{"Gene": "Sec10", "amplicon": "DRSC17053", "firefly reporter light, replicate 1": 66644, "firefly reporter light, replicate 2": 76996, "Renilla control light, replicate 1": 4.38e5, "Renilla control light, replicate 2": 4.59e5}
{"Gene": "Sec10", "amplicon": "DRSC29106", "firefly reporter light, replicate 1": 4.03e5, "firefly reporter light, replicate 2": 5.01e5, "Renilla control light, replicate 1": 1.17e6, "Renilla control light, replicate 2": 1.10e6}
{"Gene": "CG17328", "amplicon": "DRSC01927", "firefly reporter light, replicate 1": 4.30e5, "firefly reporter light, replicate 2": 3.84e5, "Renilla control light, replicate 1": 3.88e6, "Renilla control light, replicate 2": 3.64e6}
{"Gene": "CG17328", "amplicon": "DRSC22448", "firefly reporter light, replicate 1": 6.49e5, "firefly reporter light, replicate 2": 8.60e5, "Renilla control light, replicate 1": 1.45e6, "Renilla control light, replicate 2": 2.32e6}
{"Gene": "CG17328", "amplicon": "DRSC25397", "firefly reporter light, replicate 1": 3.98e5, "firefly reporter light, replicate 2": 6.44e5, "Renilla control light, replicate 1": 8.03e5, "Renilla control light, replicate 2": 8.10e5}

The list goes on:
no.	Gene	amplicon	firefly reporter light, replicate 1	firefly reporter light, replicate 2	Renilla control light, replicate 1	Renilla control light, replicate 2
20	ATP6AP2	DRSC16420	1.66e5	1.62e5	2.83e6	2.56e6
21	Psf1	DRSC08638	2.73e5	2.25e5	1.93e6	2.24e6
22	Psf1	DRSC24486	4.79e5	6.43e5	7.26e5	8.73e5
23	CG5895	DRSC10554	2.08e5	1.78e5	1.54e6	1.07e6
24	Drep3	DRSC07529	4.27e5	4.13e5	1.68e6	2.73e6
25	Drep3	DRSC22344	9.42e5	8.55e5	1.33e6	1.15e6
26	CG10700	DRSC02096	1.39e5	1.50e5	1.33e6	1.70e6
27	Men	DRSC12924	4.36e5	4.18e5	9.81e5	1.08e6
28	Men	DRSC16738	3.71e5	4.02e5	2.41e6	2.10e6
29	Men	DRSC22694	9.55e5	8.00e5	2.12e6	2.37e6
30	Men	DRSC39137	6.05e5	7.28e5	1.62e6	1.28e6
31	Rga	DRSC29179	6.77e5	5.76e5	1.73e6	1.52e6
32	cpa	DRSC04080	9.76e5	7.31e5	1.68e6	1.99e6
33	CG30156	DRSC04959	1.25e5	98247	4.25e5	5.26e5
34	CG6553	DRSC07002	72452	59244	1.39e6	1.39e6
35	CG40006	DRSC03787	1.86e5	2.67e5	3.69e5	4.35e5
36	CG40006	DRSC03809	1.84e5	1.49e5	5.08e5	5.79e5
37	CG40006	DRSC03814	2.06e5	2.42e5	5.46e5	7.86e5
38	CG40006	DRSC03817	1.80e5	2.43e5	7.13e5	7.43e5
39	CG13625	DRSC14627	1.05e5	1.16e5	7.80e5	7.42e5
40	MsR1	DRSC08615	62587	1.14e5	1.06e6	1.00e6
41	MsR1	DRSC26467	3.38e5	1.96e5	5.91e5	3.94e5
